These are yes or no findings as the source states them, for the method shown. In cells and extracts the contact can be indirect. These calls come from enrichment with a bait or labelling near it, and not all partners need be listed. Sequences can lack the tags named with a protein.
Molecular target: StAR Related Lipid Transfer Domain Containing 10 (rat (endogenous in INS1 (832/13)))
Assay: affinity purification with mass spectrometry; endogenous STARD10 immunoprecipitated from 1 mg INS1 (832/13) lysate with anti-PCTP-L (STARD10) antibody on Dynabeads Protein A, overnight at 4 °C; lysis buffer 20 mM HEPES, 150 mM NaCl, 1% Igepal; compared with rabbit IgG isotype control; on-bead trypsin digest, TMT labelling, nano-LC MS/MS

| Binder | binding |
| --- | --- |
| Pre-mRNA-processing factor 3 (protein, UniProt A0A0G2JTI7 1-101) MALSKRELDELKPWIEKTVKRVLGFSEPTVVTAALNCVGKGMDKKKAADHLKPFLDDSTLRFVDKLFEAVEEGRSSRHSKSSSDRSRKRELKEFQEALAPG | binds |
| Nuclear cap-binding protein subunit 1 (protein, UniProt Q56A27 1-790) MSRRRHSYENDGGQPHKRRKTSDANETEDHLESLICKVGEKSACSLESNLEGLAGVLEADLPNYKSKILRLLCTVARLLPEKLTIYTTLVGLLNARNYNFGGEFVEAMIRQLKESLKANNYNEAVYLVRFLSDLVNCHVIAAPSMVAMFENFVSVTQEEDVPQVRRDWYVYAFLSSLPWVGKELYEKKDAEMDRIFSSTESYLKRRQKTHVPMLQVWTADKPHPQEEYLDCLWAQIQKLKKDRWQERHILRPYLAFDSILCEALQHNLPPFTPPPHTEDSVYPMPRVIFRMFDYTDDPEGPVMPGSHSVERFVIEENLHCIIKSYWKERKTCAAQLVSYPGKNKIPLNYHIVEVIFAELFQLPAPPHIDVMYTTLLIELCKLQPGSLPQVLAQATEMLYMRLDTMSTTCVDRFINWFSHHLSNFQFRWSWEDWSDCLTQDLESPKPKFVREVLEKCMRLSYHQHILDIVPPTFSALCPANPTCIYKYGDESSNSLPGHSVALCLSVAFKSKATNDEIFSILKDVPNPNQVDDDDEGFRFNPLKIEVFVQTLLHLAAKSFSHSFSALAKFHEVFKTLAESDKGKLHVLRVMFEVWRNHPQMIAVLVDKMIRTQIVDCAAVANWIFSSELSRDFTRLFVWEILHSTIRKMNKHVLKIQKELEEAKEKLARQHKRRSDDDDRGSDRKDGALEEQIERLQEKVESAQSEQKNLFLVIFQRFIMILTEHLVRCETDGTSILTPWYKNCIERLQQIFLQHHQIIQQYMVTLENLLFTAELDPHILAVFQQFCALQA | binds |
| phosphatidylinositol 5-phosphate 4-kinase type-2 gamma (enzyme, UniProt O88370 1-420) MASSSVPPATAPAAAGGPGPGFGFASKTKKKHFVQQKVKVFRAADPLVGVFLWGVAHSINELSQVPPPVMLLPDDFKASSKIKVNNHLFHRENLPSHFKFKEYCPQVFRNLRDRFAIDDHDYLVSLTRSPPSETEGSDGRFLISYDRTLVIKEVSSEDIADMHSNLSNYHQYIVKCHGNTLLPQFLGMYRVSVENEDSYMLVMRNMFSHRLPVHRKYDLKGSLVSREASDKEKVKELPTLKDMDFLNKNQKVYIGEEEKKVFLEKLKRDVEFLVQLKIMDYSLLLGIHDIIRGSEPEEEGPVREEESEWDGDCNLTGPPALVGSYGTSPEGIGGYIHSHRPLGPGEFESFIDVYAIRSAEGAPEGGVFHGLIDILTQYDAKKKAAHAAKTVKHGAGAEISTVHPEQYAKRFLDFISNIFA | binds |
| Small nuclear ribonucleoprotein polypeptide (protein, UniProt D3ZZR5 1-255) MVKLTAELIEQAAQYTNAVRDRELDLRGYKIPVIENLGATLDQFDAIDFSDNEIRKLDGFPLLRRLKTLLVNNNRICRIGEGLDQALPCLTELILTNNSLVELGDLDPLASLKSLTYLSILRNPVTNKKHYRLYVIYKVPQVRVLDFQKVKLKERQEAEKMFKGKRGAQLAKDIARRSKTFNPGAGLPTDKKKGGPSAGDVEAIKNAIANASTLAEVERLKGLLQSGQIPGRERRSGPSDEGEEEMEDGTVTNGS | binds |

The remaining lines, values ahead:

| binding | Binder |
| --- | --- |
| binds | Heterogeneous nuclear ribonucleoprotein Q (protein, UniProt Q7TP47 1-533) MATEHVNGNGTEEPMDTTSAVIHSENFQTLLDAGLPQKVAEKLDEIYVAGQRKYGGPPPDSVYSGQQPSVGTEIFVGKIPRDLFEDELVPLFEKAGPIWDLRLMMDPLTGLNRGYAFVTFCTKEAAQEAVKLYNNHEIRSGKHIGVCISVANNRLFVGSIPKSKTKEQILEEFSKVTEGLTDVILYHQPDDKKKNRGFCFLEYEDHKTAAQARRRLMSGKVKVWGNVGTVEWADPIEDPDPEVMAKVKVLFVRNLANTVTEEILEKSFSQFGKLERVKKLKDYAFIHFDERDGAVKAMEEMNGKDLEGENIEIVFAKPPDQKRKERKAQRQAAKNQMYDDYYYYGPPHMPPPTRGRGRGGRGGYGYPPDYYGYEDYYDYYGYDYHNYRGGYEDPYYGYEDFQVGARGRGGRGARGAAPSRGRGAAPPRGRAGYSQRGGPGSARGVRGARGGAQQQRGRGVRGARGGRGGNVGGKRKADGYNQPDSKRRQTNNQNWGSQPIAQQPLQGGDHSGNYGYKSENEEFYQDTFGQQWK |
| binds | 26S proteasome non-ATPase regulatory subunit 1 (protein, UniProt O88761 1-953) MITSAAGIISLLDEEEPQLKEFALHKLNAVVNDFWAEISESVDKIEVLYEDEGFRSRQFAALVASKVFYHLGAFEESLNYALGAGDLFNVNDNSEYVETIIAKCIDHYTKQCVENADLPEGEKKPIDQRLEGIVNKMFQRCLDDHKYKQAIGIALETRRLDVFEKTILESNDVPGMLAYSLKLCMSLMQNKQFRNKVLRVLVKIYMNLEKPDFINVCQCLIFLDDTQAVSDILEKLVKEDNLLMAYQICFDLYESASQQFLSSVIQNLRTVGTPIASVPGSTNTGTVPGPEKDSDSMETEEKTAGAVAGKTPDASPEPKDQTLKMIKILSGEMAIELHLQFLIRNNNTDLMILKNTKDAVRNSVCHTATVIANSFMHCGTTSDQFLRDNLEWLARATNWAKFTATASLGVIHKGHEKEALQLMATYLPKDTSPGSAYQEGGGLYALGLIHANHGGDIIDYLLNQLKNASNDIVRHGGSLGLGLAAMGTARQDVYDLLKTNLYQDDAVTGEAAGLALGLVMLGSKNTQAIEDMVGYAQETQHEKILRGLAVGIALVMYGRMEEADALIESLCRDKDPILRRSGMYTVAMAYCGSGNNKAIRRLLHVAVSDVNDDVRRAAVESLGFILFRTPEQCPSVVSLLSESYNPHVRYGAAMALGVCCAGTGNKEAINLLEPMTNDPVNYVRQGALIASALIMIQQTEITCPKVNQFRQLYSKVINDKHDDVMAKFGAILAQGILDAGGHNVTISLQSRTGHTHMPSVVGVLVFTQFWFWFPLSHFLSLAYTPTCIIGLNKDLKMPKVQYKSNCKPSTFAYPAPLEVPKEKEKEKVSTAVLSITAKAKKKEKEKEKKEEEKMEVDEAEKKEEKEKKKEPEPNFQLLDNPARVMPAQLKVLSMTETCRYQPFKPLSIGGIIILKDTSEDIEELVEPVAAHGPKIEEEEQEPEPPEPFEYIDD |
| binds | granuphilin (synaptotagmin-like 4) (protein, UniProt Q8VHQ7 1-672) MSEILDLSFLSEMERDLILSVLQRDEELRKADEKRIRRLKNELLEIKRKGAKRGSQHYSDRTCARCQEGLGRLISKSNTCVGCNHLVCRECRVLESNGSWRCKVCSKEIELKKATGDWFYDQKVNRFAYRTGSDIIRMSLRRKPAVNKRETVGQSLLQQTQMGDIWPGRRIIQEQQKEQSVLFEVPKLKSGKSALEAESESLDSYTADSDSTSRRDSLDKSGLFPEWKKMSAPKSQVEKEIAPGNQNAVCGDEGDMIFKKNTRKVLRPSEYTKSVIDLRPEDVAQESGILGDRSKSVPGLSVDMEDEEEEEEDIDHLVKLHRQKLARGSMQSGSSMSTIGSMMSLYSEAGDFGNVSVTGKIAFSLKFEQKTQTLVIHVKECHQLAYADEAKKRSNPYVKTYLLPDKSRQGKRKTSIKRDTINPLYDETFRYEISESLLAQRTLQFSVWHHGRFGRNTFLGEAEVHMDSWKLDKKLDHCLPLHGKISTESSPGLPAHKGELVVSLKYIPASKLPVGGDRKKSKGGEGGELQVWIKEAKNLTAAKSGGTSDSFVKGYLLPMRNKASKRKTPVMKKTLNPHYNHTFVYNGVRLEDLQHMCLELTVWDREPLASNDFLGGVRLGVGTGISSGEVVDWMDSTGEEVSLWQKMRQYPGSWAEGTLQLRSSMVKQKLGV |
| binds | ATP-sensitive inward rectifier potassium channel 11 (protein, UniProt P70673 1-390) MLSRKGIIPEEYVLTRLAEDPTEPRYRTRERRARFVSKKGNCNVAHKNIREQGRFLQDVFTTLVDLKWPHTLLIFTMSFLCSWLLFAMVWWLIAFAHGDLAPGEGTNVPCVTSIHSFSSAFLFSIEVQVTIGFGGRMVTEECPLAILILIVQNIVGLMINAIMLGCIFMKTAQAHRRAETLIFSKHAVITLRHGRLCFMLRVGDLRKSMIISATIHMQVVRKTTSPEGEVVPLHQVDIPMENGVGGNSIFLVAPLIIYHVIDSNSPLYDLAPSDLHHHQDLEIIVILEGVVETTGITTQARTSYLADEILWGQRFVPIVAEEDGRYSVDYSKFGNTVKVPTPLCTARQLDEDRSLLDALTLASSRGPLRKRSVAVAKAKPKFSISPDSLS |
